“And” between values parts separate entries of the source, which are not always exact repeats. Identical values can stand only once.
Test system: carbonylated plasma proteins
Test: iTRAQ and MALDI/TOF/TOF quantitative comparison of avidin-selected carbonylated proteins, breast cancer patients vs controls (Table 8)
Design: species or system Homo sapiens
Details: avidin-selected carbonylated protein in plasma, breast cancer patient vs matched control, iTRAQ; repeated lines of a protein = different donors; negative = lower in cancer

B1: Ig gamma-4 chain C region (protein, UniProt P01861 1-396, looked up)
Immunoglobulin heavy constant …: ASTKGPSVFPLAPCSRSTSESTAALGCLVKDYFPEPVTVSWNSGALTSGVHTFPAVLQSSGLYSLSSVVTVPSSSLGTKTYTCNVDHKPSNTKVDKRVESKYGPPCPSCPAPEFLGGPSVFLFPPKPKDTLMISRTPEVTCVVVDVSQEDPEVQFNWYVDGVEVHNAKTKPREEQFNSTYRVVSVLTVLHQDWLNGKEYKCKVSNKGLPSSIEKTISKAKGQPREPQVYTLPPSQEEMTKNQVSLTCLVKGFYPSDIAVEWESNGQPENNYKTTPPVLDSDGSFFLYSRLTVDKSRWQEGNVFSCSVMHEALHNHYTQKSLSLSLELQLEESCAEAQDGELDGLWTTITIFITLFLLSVCYSATVTFFKVKWIFSSVVDLKQTIVPDYRNMIRQGA
modifications: oxidized
**Q.** B1 was tested. Which “Breast cancer/control (fold change)” value did it give?
**A.** −2.8 fold change

B2: Ig alpha-2 chain C region (protein, UniProt P01877 1-391, looked up)
Immunoglobulin heavy constant …: ASPTSPKVFPLSLDSTPQDGNVVVACLVQGFFPQEPLSVTWSESGQNVTARNFPPSQDASGDLYTTSSQLTLPATQCPDGKSVTCHVKHYTNSSQDVTVPCRVPPPPPCCHPRLSLHRPALEDLLLGSEANLTCTLTGLRDASGATFTWTPSSGKSAVQGPPERDLCGCYSVSSVLPGCAQPWNHGETFTCTAAHPELKTPLTANITKSGNTFRPEVHLLPPPSEELALNELVTLTCLARGFSPKDVLVRWLQGSQELPREKYLTWASRQEPSQGTTTYAVTSILRVAAEDWKKGETFSCMVGHEALPLAFTQKTIDRMAGSCCVADWQMPPPYVVLDLPQETLEEETPGANLWPTTITFLTLFLLSLFYSTALTVTSVRGPSGKREGPQY
**Q.** With B2 as the molecule, how does the “Breast cancer/control (fold change)” value read?
**A.** 1.6 fold change

B3: Hook homolog 2 (protein, UniProt Q96ED9 1-719, looked up)
Protein Hook homolog 2: MSVDKAELCGSLLTWLQTFHVPSPCASPQDLSSGLAVAYVLNQIDPSWFNEAWLQGISEDPGPNWKLKVSNLKMVLRSLVEYSQDVLAHPVSEEHLPDVSLIGEFSDPAELGKLLQLVLGCAISCEKKQDHIQRIMTLEESVQHVVMEAIQELMTKDTPDSLSPETYGNFDSQSRRYYFLSEEAEEGDELQQRCLDLERQLMLLSEEKQSLAQENAGLRERMGRPEGEGTPGLTAKKLLLLQSQLEQLQEENFRLESGREDERLRCAELEREVAELQHRNQALTSLAQEAQALKDEMDELRQSSERAGQLEATLTSCRRRLGELRELRRQVRQLEERNAGHAERTRQLEDELRRAGSLRAQLEAQRRQVQELQGQRQEEAMKAEKWLFECRNLEEKYESVTKEKERLLAERDSLREANEELRCAQLQPRGLTQADPSLDPTSTPVDNLAAEILPAELRETLLRLQLENKRLCRQEAADRERQEELQRHLEDANRARHGLETQHRLNQQQLSELRAQVEDLQKALQEQGGKTEDAISILLKRKLEEHLQKLHEADLELQRKREYIEELEPPTDSSTARRIEELQHNLQKKDADLRAMEERYRRYVDKARMVMQTMEPKQRPAAGAPPELHSLRTQLRERDVRIRHLEMDFEKSRSQREQEEKLLISAWYNMGMALQQRAGEERAPAHAQSFLAQQRLATNSRRGPLGRLASLNLRPTDKH
**Q.** With B3 as the molecule, how does the “Breast cancer/control (fold change)” value read?
**A.** 2.6 fold change

B4: Ig alpha-1 chain C region (protein, UniProt P01876 1-398, looked up)
Immunoglobulin heavy constant …: ASPTSPKVFPLSLCSTQPDGNVVIACLVQGFFPQEPLSVTWSESGQGVTARNFPPSQDASGDLYTTSSQLTLPATQCLAGKSVTCHVKHYTNPSQDVTVPCPVPSTPPTPSPSTPPTPSPSCCHPRLSLHRPALEDLLLGSEANLTCTLTGLRDASGVTFTWTPSSGKSAVQGPPERDLCGCYSVSSVLPGCAEPWNHGKTFTCTAAYPESKTPLTATLSKSGNTFRPEVHLLPPPSEELALNELVTLTCLARGFSPKDVLVRWLQGSQELPREKYLTWASRQEPSQGTTTFAVTSILRVAAEDWKKGDTFSCMVGHEALPLAFTQKTIDRLADWQMPPPYVVLDLPQETLEEETPGANLWPTTITFLTLFLLSLFYSTALTVTSVRGPSGNREGPQY
**Q.** B4 was tested. Which “Breast cancer/control (fold change)” value did it give?
**A.** 2.6 fold change and 1.8 fold change

B5: Ig gamma-3 chain C region (protein, UniProt P01860 1-446, looked up)
Immunoglobulin heavy constant …: ASTKGPSVFPLAPCSRSTSGGTAALGCLVKDYFPEPVTVSWNSGALTSGVHTFPAVLQSSGLYSLSSVVTVPSSSLGTQTYTCNVNHKPSNTKVDKRVELKTPLGDTTHTCPRCPEPKSCDTPPPCPRCPEPKSCDTPPPCPRCPEPKSCDTPPPCPRCPAPELLGGPSVFLFPPKPKDTLMISRTPEVTCVVVDVSHEDPEVQFKWYVDGVEVHNAKTKPREEQYNSTFRVVSVLTVLHQDWLNGKEYKCKVSNKALPAPIEKTISKTKGQPREPQVYTLPPSREEMTKNQVSLTCLVKGFYPSDIAVEWESSGQPENNYNTTPPMLDSDGSFFLYSKLTVDKSRWQQGNIFSCSVMHEALHNRFTQKSLSLSPELQLEESCAEAQDGELDGLWTTITIFITLFLLSVCYSATVTFFKVKWIFSSVVDLKQTIIPDYRNMIGQGA
modifications: oxidized
**Q.** For B5, which “Breast cancer/control (fold change)” value is on record?
**A.** 2.4 fold change

B6: Ig gamma-2 chain C region (protein, UniProt P01859 1-395, looked up)
Immunoglobulin heavy constant …: ASTKGPSVFPLAPCSRSTSESTAALGCLVKDYFPEPVTVSWNSGALTSGVHTFPAVLQSSGLYSLSSVVTVPSSNFGTQTYTCNVDHKPSNTKVDKTVERKCCVECPPCPAPPVAGPSVFLFPPKPKDTLMISRTPEVTCVVVDVSHEDPEVQFNWYVDGVEVHNAKTKPREEQFNSTFRVVSVLTVVHQDWLNGKEYKCKVSNKGLPAPIEKTISKTKGQPREPQVYTLPPSREEMTKNQVSLTCLVKGFYPSDISVEWESNGQPENNYKTTPPMLDSDGSFFLYSKLTVDKSRWQQGNVFSCSVMHEALHNHYTQKSLSLSPELQLEESCAEAQDGELDGLWTTITIFITLFLLSVCYSATITFFKVKWIFSSVVDLKQTIVPDYRNMIRQGA
**Q.** Which “Breast cancer/control (fold change)” value does the source give for B6 here?
**A.** 1.9 fold change

B7: Galectin-3-binding protein precursor (protein, UniProt Q08380 19-585, looked up)
pro-form: VNDGDMRLADGGATNQGRVEIFYRGQWGTVCDNLWDLTDASVVCRALGFENATQALGRAAFGQGSGPIMLDEVQCTGTEASLADCKSLGWLKSNCRHERDAGVVCTNETRSTHTLDLSRELSEALGQIFDSQRGCDLSISVNVQGEDALGFCGHTVILTANLEAQALWKEPGSNVTMSVDAECVPMVRDLLRYFYSRRIDITLSSVKCFHKLASAYGARQLQGYCASLFAILLPQDPSFQMPLDLYAYAVATGDALLEKLCLQFLAWNFEALTQAEAWPSVPTDLLQLLLPRSDLAVPSELALLKAVDTWSWGERASHEEVEGLVEKIRFPMMLPEELFELQFNLSLYWSHEALFQKKTLQALEFHTVPFQLLARYKGLNLTEDTYKPRIYTSPTWSAFVTDSSWSARKSQLVYQSRRGPLVKYSSDYFQAPSDYRYYPYQSFQTPQHPSFLFQDKRVSWSLVYLPTIQSCWNYGFSCSSDELPVLGLTKSGGSDRTIAYENKALMLCEGLFVADVTDFEGWKAAIPSALDTNSSKSTSSFPCPAGHFNGFRTVIRPFYLTNSSGVD
modifications: pro-form
**Q.** Which “Breast cancer/control (fold change)” value does the source give for B7 here?
**A.** 9.0 fold change
